# Results are given in words; binding and its absence hold for the method and conditions named. Binding seen in cells or lysates may run through a third protein. Some entries that bind do so weakly or less than the wild type.
# Chains of the proteins cited; added tags and fusions are not shown.
# UniProt P26040: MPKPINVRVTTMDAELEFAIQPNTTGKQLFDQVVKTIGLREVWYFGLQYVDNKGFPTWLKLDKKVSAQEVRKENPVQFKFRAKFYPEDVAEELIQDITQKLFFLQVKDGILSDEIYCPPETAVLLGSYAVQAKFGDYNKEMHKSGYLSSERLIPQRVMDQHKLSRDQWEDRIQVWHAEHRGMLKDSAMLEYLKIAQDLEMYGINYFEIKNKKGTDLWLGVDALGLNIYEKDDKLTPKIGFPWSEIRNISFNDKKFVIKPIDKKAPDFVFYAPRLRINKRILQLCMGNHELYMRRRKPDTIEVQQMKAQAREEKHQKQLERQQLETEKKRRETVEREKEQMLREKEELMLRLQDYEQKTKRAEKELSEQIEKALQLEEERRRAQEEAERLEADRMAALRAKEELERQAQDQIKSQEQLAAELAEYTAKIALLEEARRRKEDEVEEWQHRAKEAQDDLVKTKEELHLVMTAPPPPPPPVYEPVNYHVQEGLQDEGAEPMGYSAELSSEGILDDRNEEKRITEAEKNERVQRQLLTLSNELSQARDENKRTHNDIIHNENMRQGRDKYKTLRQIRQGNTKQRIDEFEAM
# UniProt Q9JHL1: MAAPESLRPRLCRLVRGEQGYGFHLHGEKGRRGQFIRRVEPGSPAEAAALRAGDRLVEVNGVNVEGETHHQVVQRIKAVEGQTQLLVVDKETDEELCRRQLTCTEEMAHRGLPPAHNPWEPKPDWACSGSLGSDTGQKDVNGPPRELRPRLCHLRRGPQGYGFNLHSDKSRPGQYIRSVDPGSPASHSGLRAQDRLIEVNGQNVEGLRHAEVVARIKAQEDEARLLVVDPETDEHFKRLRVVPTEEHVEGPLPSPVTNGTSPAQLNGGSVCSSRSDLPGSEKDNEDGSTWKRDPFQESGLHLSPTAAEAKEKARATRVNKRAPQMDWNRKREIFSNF
# UniProt Q9QUI0: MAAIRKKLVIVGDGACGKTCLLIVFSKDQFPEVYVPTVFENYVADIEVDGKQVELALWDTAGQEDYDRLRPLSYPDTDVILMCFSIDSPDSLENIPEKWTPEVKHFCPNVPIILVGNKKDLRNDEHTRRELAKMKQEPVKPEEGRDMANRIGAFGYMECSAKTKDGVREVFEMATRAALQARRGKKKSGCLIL
# UniProt P84096: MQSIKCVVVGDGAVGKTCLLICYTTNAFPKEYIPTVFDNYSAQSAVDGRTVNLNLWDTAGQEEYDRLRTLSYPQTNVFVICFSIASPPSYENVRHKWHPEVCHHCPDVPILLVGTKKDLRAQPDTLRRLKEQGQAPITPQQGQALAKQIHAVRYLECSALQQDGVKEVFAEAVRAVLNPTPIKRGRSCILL
# T1: Podocalyxin (mouse (endogenous in E16 forebrain)) (UniProt Q9R0M4)
# T1 sequence: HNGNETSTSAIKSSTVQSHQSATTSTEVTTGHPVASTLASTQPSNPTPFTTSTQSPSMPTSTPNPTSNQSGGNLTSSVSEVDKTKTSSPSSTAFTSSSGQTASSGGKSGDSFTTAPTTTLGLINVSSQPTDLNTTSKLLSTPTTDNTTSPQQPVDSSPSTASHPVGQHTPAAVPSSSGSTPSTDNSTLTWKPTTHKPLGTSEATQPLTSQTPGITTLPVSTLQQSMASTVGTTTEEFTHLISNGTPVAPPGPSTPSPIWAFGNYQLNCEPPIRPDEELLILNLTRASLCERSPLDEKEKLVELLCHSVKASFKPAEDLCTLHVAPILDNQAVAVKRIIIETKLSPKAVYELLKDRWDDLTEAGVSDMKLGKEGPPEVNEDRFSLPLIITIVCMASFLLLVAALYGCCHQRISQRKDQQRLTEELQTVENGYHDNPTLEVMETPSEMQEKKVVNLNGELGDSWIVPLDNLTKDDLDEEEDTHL
# Target: T1, Podocalyxin (mouse (endogenous in E16 forebrain))
# Experiment: co-IP; E16 mouse forebrain lysates (1% Triton-100 buffer), 300 µg total protein per sample; antibody and protein G-Sepharose beads 2 h at 4°C; five washes with 10 mM Tris pH 8, 500 mM NaCl, 1% Triton X-100, 0.5% NP-40; SDS-PAGE and Western blot
row,binding,Molecule
1,binds,Ezrin (from UniProt P26040 1-586)
2,binds,Na+/H+-Exchanger Regulatory Factor 2 (from UniProt Q9JHL1 1-337)
3,binds,RhoA (from UniProt Q9QUI0 1-193)
4,binds,RhoG (from UniProt P84096 1-191)
5,binds,"sodium-hydrogen exchanger regulatory factor 1 (protein, UniProt P70441 1-355) MSADAAAGEPLPRLCCLEKGPNGYGFHLHGEKGKVGQFIRLVEPGSPAEKSGLLAGDRLVEVNGENVEKETHQQVVSRIRAALNAVRLLVVDPETDERLKKLGVSIREELLRPQEKSEQAEPPAAADTHEAGDQNEAEKSHLRELRPRLCTMKKGPNGYGFNLHSDKSKPGQFIRAVDPDSPAEASGLRAQDRIVEVNGVCMEGKQHGDVVSAIKGGGDEAKLLVVDKETDEFFKKCKVIPSQEHLDGPLPEPFSNGEIQKESSREALVEPASESPRPALARSASSDTSEELNSQDSPKRQVSTEPSSTSSSSSDPILDLNISLAVAKERAHQKRSSKRAPQMDWSKKNELFSNL"

# Reference: publication PMC2919383
